Measured data: PubChem BioAssay AID1224828 (NIAID, 2016)
Test: 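Find genes required for NF-kappaB p65 moving into the nucleus after LPS in mouse macrophages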 (primary screen). Cells: mouse RAW264.7 G9 macrophage reporter cells (GFP-p65, Tnf promoter-mCherry). Knock-down reagent: siRNA pool against mouse genes, 100 nM. Time to read-out: 2 days siRNA transfection, then 40 min LPS before fixation. Challenge: LPS (Salmonella minnesota R595) at 10 ng/ml. Measured: 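Imaged p65 nuclear translocation ratio, normalised to the plate median, converted to robust z-scores and averaged across two replicates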. Direction: p65 translocation robust z-score: higher = more nuclear NF-kappaB p65 after LPS than the plate median; nuclear/cytoplasmic p65 ratio: higher = more nuclear NF-kappaB p65. Hit rule: 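Active if robust z is above 3.3 (negative regulators) or below -1.56, the Tlr4 control median (positive regulators); activity score 50 or more; control wells not called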. Calls: active = hit (p65 shift raised or lowered); inactive = no clear change.
The deposit covers about 17,000 reagents; this is a part drawn at random. Over the whole deposit, 762 (4.5%) are marked active. 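Active calls include both raised and lowered p65 entry, mostly lowered; wells with fewer than 50 cells lack a z-score.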 Raw values are not corrected between plates. Reagents against one gene are numbered here.

Target gene | reagent | p65 translocation robust z-score | nuclear/cytoplasmic p65 ratio, rep 1 | nuclear/cytoplasmic p65 ratio, rep 2 | low cell count flag | Call
Mcf2l | 1 | 1.97 | 1.93 | 1.91 | enough cells to score | inactive
Ciz1 | 1 | -1.35 | 1.27 | 1.21 | enough cells to score | inactive
Dhx38 | 1 | 0.51 | 1.53 | 1.56 | enough cells to score | inactive
Tmed3 | 1 | – | 1.31 | 1.44 | fewer than 50 cells per well; well left out of scoring | inactive
Cpsf1 | 1 | 1.86 | 1.68 | 2.27 | enough cells to score | inactive
Tnfrsf11b | 1 | -1.76 | 1.26 | 1.12 | enough cells to score | active
Tnfaip8 | 1 | -0.45 | 1.47 | 1.44 | enough cells to score | inactive
Tpd52l1 | 1 | -0.8 | 1.37 | 1.44 | enough cells to score | inactive
Tkt | 1 | -0.65 | 1.42 | 1.43 | enough cells to score | inactive
Nme7 | 1 | 0.19 | 1.62 | 1.47 | enough cells to score | inactive
Mtrf1l | 1 | -0.68 | 1.53 | 1.5 | enough cells to score | inactive
Bpifa1 | 1 | 0.36 | 1.24 | 1.26 | enough cells to score | inactive
Cyp11a1 | 1 | 1.09 | 1.68 | 1.47 | enough cells to score | inactive
Fbxo32 | 1 | -1.55 | 1.38 | 1.16 | enough cells to score | inactive
Slco4a1 | 1 | – | 0.964 | 1.07 | fewer than 50 cells per well; well left out of scoring | inactive
Fhip1b | 1 | 1.37 | 1.45 | 1.28 | enough cells to score | inactive
Rgmb | 1 | 0.67 | 1.57 | 1.24 | enough cells to score | inactive
Sstr1 | 1 | – | 1.3 | 1.28 | fewer than 50 cells per well; well left out of scoring | inactive
Itga3 | 1 | -0.26 | 1.39 | 1.39 | enough cells to score | inactive
Grin3b | 1 | 0.92 | 1.79 | 1.67 | enough cells to score | inactive
Aldh1a3 | 1 | -0.45 | 1.54 | 1.57 | enough cells to score | inactive
Smarcad1 | 1 | -0.19 | 1.55 | 1.51 | enough cells to score | inactive
Zfp160 | 1 | 0.56 | 1.67 | 1.73 | enough cells to score | inactive
Dsg1c | 1 | 0.68 | 1.55 | 1.42 | enough cells to score | inactive
Hmga1 | 1 | -1.67 | 1.19 | 1.19 | enough cells to score | active
Plk5 | 1 | – | 1.34 | 1.43 | fewer than 50 cells per well; well left out of scoring | inactive
Adam7 | 1 | -1.16 | 1.48 | 1.46 | enough cells to score | inactive
Qrich1 | 1 | -0.66 | 1.29 | 1.39 | enough cells to score | inactive
Asb15 | 1 | 1.04 | 1.75 | 1.66 | enough cells to score | inactive
Elmod2 | 1 | -0.15 | 1.47 | 1.46 | enough cells to score | inactive
Tff2 | 1 | – | 1.32 | 1.18 | fewer than 50 cells per well; well left out of scoring | inactive
Dnajc7 | 1 | 0.56 | 1.53 | 1.45 | enough cells to score | inactive
Il16 | 1 | -0.22 | 1.28 | 1.36 | enough cells to score | inactive
Rpp30 | 1 | 0.55 | 1.51 | 1.26 | enough cells to score | inactive
Mllt3 | 1 | 0.27 | 1.76 | 1.69 | enough cells to score | inactive
Hbb-bh1 | 1 | 0.05 | 1.62 | 1.58 | enough cells to score | inactive
Or2y1e | 1 | -1.31 | 1.56 | 1.12 | enough cells to score | inactive
Trdv2-2 | 1 | -0.46 | 1.38 | 1.4 | enough cells to score | inactive
Hspd1 | 1 | -0.25 | 1.26 | 1.36 | enough cells to score | inactive
Amy1 | 1 | -1.35 | 1.38 | 1.5 | enough cells to score | inactive
Cartpt | 1 | -0.37 | 1.5 | 1.61 | enough cells to score | inactive
Rgr | 1 | 0.88 | 1.61 | 1.74 | enough cells to score | inactive
Ap3s1 | 1 | -0.7 | 1.43 | 1.48 | enough cells to score | inactive
Irak4 | 1 | 0.5 | 1.61 | 1.39 | enough cells to score | inactive
Zfp341 | 1 | -1.03 | 1.28 | 1.11 | enough cells to score | inactive
Pimreg | 1 | -0.2 | 1.58 | 1.59 | enough cells to score | inactive
Zfand3 | 1 | -1.21 | 1.16 | 1.1 | enough cells to score | inactive
Ucp3 | 1 | 0.8 | 1.59 | 1.65 | enough cells to score | inactive
Gm10128 | 1 | – | 1.49 | 1.34 | fewer than 50 cells per well; well left out of scoring | inactive
Nfic | 1 | 0.68 | 1.68 | 1.5 | enough cells to score | inactive
Nfic | 2 | 0.64 | 1.55 | 1.48 | enough cells to score | inactive
Cpeb1 | 1 | -0.18 | 1.42 | 1.9 | enough cells to score | inactive
Uqcrfs1 | 1 | -0.03 | 1.49 | 1.52 | enough cells to score | inactive
Sec14l2 | 1 | -0.42 | 1.56 | 1.42 | enough cells to score | inactive
Trib2 | 1 | 0.74 | 1.74 | 1.53 | enough cells to score | inactive
Rdh11 | 1 | – | 1.41 | 1.19 | fewer than 50 cells per well; well left out of scoring | inactive
Ttll12 | 1 | 2.15 | 1.72 | 1.66 | enough cells to score | inactive
Ggact | 1 | -0.31 | 1.64 | 1.67 | enough cells to score | inactive
Npy1r | 1 | 3.56 | 1.74 | 2.39 | enough cells to score | active

Called active (from the list above):
Target gene | reagent | p65 translocation robust z-score | nuclear/cytoplasmic p65 ratio, rep 1 | nuclear/cytoplasmic p65 ratio, rep 2 | low cell count flag | Call
Tnfrsf11b | 1 | -1.76 | 1.26 | 1.12 | enough cells to score | active
Hmga1 | 1 | -1.67 | 1.19 | 1.19 | enough cells to score | active
Npy1r | 1 | 3.56 | 1.74 | 2.39 | enough cells to score | active
